Reference: patent publication US4505914A, “Pharmaceutical for the treatment of sleep disorders” (Merckle GmbH, priority 1982, dated 1985)

Columns and labels:
male NMRJ mice = assay: Sleeping time prolongation under the influence of cinnarizine and flunarizine (ED50); format: in vivo, mouse; settings: for ED50: sleeping time increased by 50%
Text: (§1) A typical representative from the group of barbiturates with long action (phenobarbital), with short to average action (cyclobarbital-calcium) as well as ultra short action (hexobarbital) as well as a combination of two barbiturates (cyclobarbital-calcium+hexobarbital) was applied orally in graduated doses.
Determination of the sleeping time prolongation under the influence of […]

male NMR.tau. mice = assay: Sleep duration, prolongation of sleeping time and ED50 under the influence of cinnarizine (Table 3); format: in vivo, mouse
Text: as §1

For `C(=C\c1ccccc1)/CN1CCN(C(c2ccccc2)c2ccccc2)CC1` [Cinnarizine, 1-benzhydryl-4-trans-cinnamylpiperazine], the ED50 (male NMRJ mice; cinnarizine with cyclobarbital-Ca 239 mg/kg, probit analysis) was 2.77 mg/kg, the ED50 (male NMRJ mice; cinnarizine with cyclobarbital-Ca + hexobarbital (40 + 30) 225 mg/kg) was 4.68 mg/kg and the ED50 (male NMRJ mice; cinnarizine with hexobarbital 710 mg/kg, probit analysis) was 0.75 mg/kg. For the same molecule, the ED50 (male NMRJ mice; cinnarizine with phenobarbital 256 mg/kg, probit analysis) was 3.57 mg/kg, the “Dosage to obtain an ED50 with the combination of both barbiturates” value (male NMRJ mice; in comparison with the individual barbiturates) was “higher dosages” and the “Potency in the case of hexobarbital” value (male NMRJ mice; with hexobarbital) was “highest potency”. For the same molecule, the ED50 (male NMR.tau. mice; cinnarizine with cyclobarbital calcium 239 mg/kg, range (3.07-4.21)) was 3.52 mg/kg, the ED50 (male NMR.tau. mice; cinnarizine with cyclobarbital calcium + hexobarbital (40 + 30) 225 mg/kg, range (4.19-6.49)) was 4.94 mg/kg and the ED50 (male NMR.tau. mice; cinnarizine with hexobarbital 710 mg/kg) was 0.77 mg/kg.
